The text below walks through data of patent US20210040221A1 (published 2021).

The target in assay [1] is human CD25 (Uniprot record no. P01589), as synthetic peptides representing the human CD25 sequence (Pepscan arrays) (human) (UniProt P01589). Briefly: Pepscan peptide array ELISA. (An ELISA detects its analyte on a solid surface through an enzyme-linked reagent.)
Assay [2] has as its target T1, recombinant human CD25 his tagged (UniProt P01589 22-213).
T1 chain: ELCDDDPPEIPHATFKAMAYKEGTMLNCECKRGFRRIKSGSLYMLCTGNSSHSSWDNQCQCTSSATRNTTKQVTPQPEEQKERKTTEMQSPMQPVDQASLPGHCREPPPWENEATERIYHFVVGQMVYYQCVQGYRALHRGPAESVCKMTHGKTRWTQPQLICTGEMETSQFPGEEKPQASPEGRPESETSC
Briefly: Octet sequential binding, rhCD25 his tagged on Ni-NTA biosensors, first antibody. Background: BLI is a label-free optical method that tracks binding on a fibre tip over time.

These are yes or no findings as the source states them, for the method shown. Some results given as binding are weak or reduced against the parent protein; the word gives no strength.

B1: Antibody 1 (antibody, V domains shown)
VH: EVQLLESGGGLVQPGGSLRLSCAASGFTFSSYGMSWVRQAPGKGLELVSTINGYGDTTYYPDSVKGRFTISRDNSKNTLYLQMNSLRAEDTAVYYCARDRDYGNSYYYALDYWGQGTLVTVSS
VL: EIVLTQSPGTLSLSPGERATLSCRASSSVSFMHWLQQKPGQAPRPLIYATSNLASGIPDRFSGSGSGTDYTLTISRLEPEDFAVYYCQQWSSNPPAFGQGTKLEIK
Turning to B1, the binding result in assay [1] is “binds”.

B2: Antibody 2 (antibody, V domains shown)
VH: EVQLLESGGGLVQPGGSLRLSCAASGFTFSSYGMSWVRQAPGKGLELVSTINGYGDTTYYPDSVKGRFTISRDNSKNTLYLQMNSLRAEDTAVYYCARDRDYGNSYYYALDYWGQGTLVTVSS
VL: QIVLTQSPGTLSLSPGERATLSCRASSSVSFMHWLQQKPGQSPRPLIYATSNLASGIPDRFSGSGSGTDYTLTISRLEPEDFAVYYCQQWSSNPPAFGQGTKLEIK
Regarding B2, the binding entry in assay [1] and in assay [2] was “binds” in each case.

B3: Antibody 4 (antibody, V domains shown)
VH: EVQLLESGGGLVQPGGSLRLSCAASGFTFSSYGMSWVRQAPGKGLELVSTINGYGDTTYYPDSVKGRFTISRDNAKNTLYLQMNSLRAEDTAVYFCARDRDYGNSYYYALDYWGQGTLVTVSS
VL: QIVLTQSPGTLSLSPGERATLSCRASSSVSFMHWLQQKPGQSPRPLIYATSNLASGIPDRFSGSGSGTDYTLTISRLEPEDFAVYYCQQWSSNPPAFGQGTKLEIK
With B3, in assay [1], the binding result is on record as “binds”.

B4: Antibody 3 (antibody, V domains shown)
VH: EVQLLESGGGLVQPGGSLRLSCAASGFTFSSYGMSWVRQAPGKGLELVSTINGYGDTTYYPDSVKGRFTISRDNAKNTLYLQMNSLRAEDTAVYFCARDRDYGNSYYYALDYWGQGTLVTVSS
VL: EIVLTQSPGTLSLSPGERATLSCRASSSVSFMHWLQQKPGQAPRPLIYATSNLASGIPDRFSGSGSGTDYTLTISRLEPEDFAVYYCQQWSSNPPAFGQGTKLEIK
Turning to B4, in assay [1], the binding result is “binds”.
